Experiment: Urine organic acid analysis for 3-methylglutaconic acid (3MGA)
Format: in vivo, patients
Settings: Patient 4, Atorvastatin 10 mg/d, normal range 0-9 mmol/mol creatinine
Description: The invention is not limited by the method of detection of 3MGA in the urine. Presently, 3MGA is typically detected using gas chromatography mass spectrometry (GCMS) or tandem mass spectrometry techniques. The development of tests for the detection of organic molecules in bodily fluids is well within the ability of those skilled in the art. Any quantitative or qualitative method able to detect 3MGA with the sensitivity required can be used to practice the method of the invention.
As some variance may exist between testing laboratories, exact values indicative of myopathy may vary. All of the values presented herein were obtained at the University of California San Diego clinical testing laboratory. In that laboratory, two standard deviations from the average background level is 9 millimoles/mole creatine. Based on values obtained in that laboratory, values indicative of statin related myopathy are between about 9 and 200 millimoles/mole creatine, typically between about 9 to 100 millimoles/mole creatine, most typically between about 9 and 50 millimoles/mole creatine. […]
Quantitative testing methods. […] Typically 3MGA is detected during a complete urine organic acid analysis which is performed using tandem mass spectrophotometry or gas chromatography mass spectrophotometry. […]

CC(C)c1c(C(=O)Nc2ccccc2)c(-c2ccccc2)c(-c2ccc(F)cc2)n1CC[C@@H](O)C[C@@H](O)CC(=O)O [Atorvastatin]
3-Methylglutaconic acid levels On Statin: 16 mmol/mol

Source: patent US20030224470A1, “Method of diagnosing statin myopathy” (priority 2002, published 2003)
